These are yes or no findings as the source states them, for the method shown. Some results given as binding are weak or reduced against the parent protein; the word gives no strength. Tags and fused reporters may be left off the sequences shown.
T1: recombinant human RANKL (soluble, Gly136-Asp317, N-terminal 10 His, expressed in CHO cells) (human) (UniProt O14788)
T1 sequence: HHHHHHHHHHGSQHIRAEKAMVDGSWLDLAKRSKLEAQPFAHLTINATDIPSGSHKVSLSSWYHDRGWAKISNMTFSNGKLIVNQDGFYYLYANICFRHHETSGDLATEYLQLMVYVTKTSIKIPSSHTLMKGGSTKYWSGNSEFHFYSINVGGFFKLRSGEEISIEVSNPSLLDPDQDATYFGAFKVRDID

Protein sequences, listed by entry. Tags and fused reporters are not part of them. Lines headed by an entry give the natural chain unless they say otherwise; changes in a name come on top.
UniProt O14788: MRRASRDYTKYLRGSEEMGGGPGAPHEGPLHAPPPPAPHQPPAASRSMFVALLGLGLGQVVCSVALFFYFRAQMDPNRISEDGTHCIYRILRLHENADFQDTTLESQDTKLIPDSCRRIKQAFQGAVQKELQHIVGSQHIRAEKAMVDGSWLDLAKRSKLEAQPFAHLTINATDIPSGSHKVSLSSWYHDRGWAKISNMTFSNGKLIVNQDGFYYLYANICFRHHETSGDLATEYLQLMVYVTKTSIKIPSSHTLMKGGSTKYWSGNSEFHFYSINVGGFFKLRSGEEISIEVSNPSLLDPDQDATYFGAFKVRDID


Target: T1, recombinant human RANKL (soluble, Gly136-Asp317, N-terminal 10 His, expressed in CHO cells) (human)
Test: ELISA, hRANKL coated 1 µg/ml, scFv supernatant, anti-c-myc detection

Row | binding | Binder
1 | binds | pFL249-L10 scFv clone (scFv, not shown: small tags and cut ends) scFv: QVQLQQSGAELASPGASVKLSCKASGYTFTTYWLQWVKQRPGQGLEWIGAIYPGPGNTKYTQKFKDKATLTADKSASTAYMQLNSLTSEDSAVYYCARRGSRRGIAYWGQGTLVTVSAGGGGSGGGGSGGGGSNIVLTQSPASLSVSLGQRATISCRASESVDSYGRSFMHWYQQRPGQAPRLLIYLASNLESGVPARFSGSGSRTDFTLTISSVEAEDEATYYCQQDNEDPYTFGGGTKLEIK
2 | binds | pFL249-L37 scFv clone (scFv, not shown: small tags and cut ends) scFv: QVQLQQSGAELASPGASVKLSCKASGYTFTTYWLQWVKQRPGQGLEWIGAIYPGPGNTKYTQKFKDKATLTADKSASTAYMQLNSLTSEDSAVYYCARRGSRRGIAYWGQGTLVTVSAGGGGSGGGGSGGGGSNIVLTQSPASLSVSLGQRATISCRASESVDSYGRSFMHWYQQKPGQAPKLLIYLASNLESGVPSRFSGSGSRTDFTLTISAVEAEDAATYYCQQDNEDPYTFGGGTKLEIK
3 | binds | pFL249-L10u scFv clone (scFv, not shown: small tags and cut ends) scFv: QVQLQQSGAELASPGASVKLSCKASGYTFTTYWLQWVKQRPGQGLEWIGAIYPGPGNTKYTQKFKDKATLTADKSASTAYMQLNSLTSEDSAVYYCARRGSRRGIAYWGQGTLVTVSAGGGGSGGGGSGGGGSNIVLTQSPASLSVSLGQRATISCRASESVDSYGRSFMHWYQQRPGQAPKLLIYLASNLESGVPARFSGSGSRTDFTLTISSVEAEDEATYYCQQDNEDPYTFGGGTKLEIK
4 | binds | pFL249-L37u scFv clone (scFv, not shown: small tags and cut ends) scFv: QVQLQQSGAELASPGASVKLSCKASGYTFTTYWLQWVKQRPGQGLEWIGAIYPGPGNTKYTQKFKDKATLTADKSASTAYMQLNSLTSEDSAVYYCARRGSRRGIAYWGQGTLVTVSAGGGGSGGGGSGGGGSNIVLTQSPASLSVSLGQRATISCRASESVDSYGRSFMHWYQQKPGQAPKLLIYLASNLESGVPSRFSGSGSRTDFTLTISRVEAEDAATYYCQQDNEDPYTFGGGTKLEIK
